These are yes or no findings as the source states them, for the method shown. Binding seen in cells or lysates may run through a third protein. Some binding calls cover weakened binding; strength is not graded here. Tags and fused reporters may be left off the sequences shown.
Target: T1, MmpL3-msfGFP (MmpL3 of M. tuberculosis fused to msfGFP) (M. tuberculosis) (UniProt P9WJV5)
T1 sequence: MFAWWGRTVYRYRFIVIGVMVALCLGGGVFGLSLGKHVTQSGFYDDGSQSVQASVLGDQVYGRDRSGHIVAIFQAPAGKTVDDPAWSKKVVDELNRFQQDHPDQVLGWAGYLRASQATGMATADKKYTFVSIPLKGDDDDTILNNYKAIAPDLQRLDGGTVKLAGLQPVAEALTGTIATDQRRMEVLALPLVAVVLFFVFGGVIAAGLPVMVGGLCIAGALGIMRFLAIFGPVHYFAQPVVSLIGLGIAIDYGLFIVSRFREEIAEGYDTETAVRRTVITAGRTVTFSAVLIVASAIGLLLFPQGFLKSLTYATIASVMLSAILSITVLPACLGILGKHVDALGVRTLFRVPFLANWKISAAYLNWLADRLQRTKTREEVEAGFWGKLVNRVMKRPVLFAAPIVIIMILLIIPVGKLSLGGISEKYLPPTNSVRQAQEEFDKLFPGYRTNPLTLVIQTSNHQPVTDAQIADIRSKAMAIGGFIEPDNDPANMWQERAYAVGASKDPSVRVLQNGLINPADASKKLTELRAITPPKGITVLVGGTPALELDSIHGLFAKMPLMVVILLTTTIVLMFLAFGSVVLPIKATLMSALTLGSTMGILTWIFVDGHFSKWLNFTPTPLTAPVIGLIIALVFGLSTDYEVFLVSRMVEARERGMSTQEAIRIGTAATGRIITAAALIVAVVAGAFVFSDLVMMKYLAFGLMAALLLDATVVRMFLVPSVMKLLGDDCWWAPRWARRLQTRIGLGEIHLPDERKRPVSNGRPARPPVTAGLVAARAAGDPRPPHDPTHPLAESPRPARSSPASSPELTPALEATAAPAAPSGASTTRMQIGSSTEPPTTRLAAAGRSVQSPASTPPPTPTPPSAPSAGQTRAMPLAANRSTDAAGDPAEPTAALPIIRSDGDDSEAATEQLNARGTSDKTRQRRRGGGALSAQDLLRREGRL
Test: co-IP; […]) in PBS, 30 min, 37°C; […]

B1: PgfA-3× FLAG (MSMEG_0317, Polar growth factor A, with a 3× FLAG tag) (protein, UniProt A0QP93 1-398)
chain: MNRAVALRIAACGLLGLGAALLIAALLLTTYTKGKIAKIPLDIDTSLVSDGTATAFDPDSLVAERFKIDRDVPVALQQQMSVEAPSNADVVTFQVGTTLRRTDRQQDAGLLLALVDTVTMNRNTAEAVSSENNPGGAVQKPRAIEDEKPPTNIALPHEGLTYRFPFDTEKKTYPFFDPIAQKAFDANYDGEEDVNGLTTYRFVQNVGYDADGKLADPIKYSSLYEDDADASVTARAEVWGVPGEPDESITMDRFYAASRTFWVDPVSGTIVKSEEHGYQYYAREALKPEVTYVDFKVTTNEESVESQVAAASDERDRIALWTRILPITFTALGLVSLVGGAVLGSFALRTESTLIDPGLDTADHGFFDTQGIQVPGAEAKTEKLPAQRPTDLPPDRPI
**Q.** How did the binding turn out when B1 was run?
**A.** binds
